Test results as given in doi:10.1101/2025.02.21.639304.
Results are given in words; binding and its absence hold for the method and conditions named. In cells and extracts the contact can be indirect. Binding can be weak; no strength is given.

Chains of the proteins cited; added tags and fusions are not shown. Lines headed by an entry give the natural chain unless they say otherwise; changes in a name come on top.
UniProt O60674: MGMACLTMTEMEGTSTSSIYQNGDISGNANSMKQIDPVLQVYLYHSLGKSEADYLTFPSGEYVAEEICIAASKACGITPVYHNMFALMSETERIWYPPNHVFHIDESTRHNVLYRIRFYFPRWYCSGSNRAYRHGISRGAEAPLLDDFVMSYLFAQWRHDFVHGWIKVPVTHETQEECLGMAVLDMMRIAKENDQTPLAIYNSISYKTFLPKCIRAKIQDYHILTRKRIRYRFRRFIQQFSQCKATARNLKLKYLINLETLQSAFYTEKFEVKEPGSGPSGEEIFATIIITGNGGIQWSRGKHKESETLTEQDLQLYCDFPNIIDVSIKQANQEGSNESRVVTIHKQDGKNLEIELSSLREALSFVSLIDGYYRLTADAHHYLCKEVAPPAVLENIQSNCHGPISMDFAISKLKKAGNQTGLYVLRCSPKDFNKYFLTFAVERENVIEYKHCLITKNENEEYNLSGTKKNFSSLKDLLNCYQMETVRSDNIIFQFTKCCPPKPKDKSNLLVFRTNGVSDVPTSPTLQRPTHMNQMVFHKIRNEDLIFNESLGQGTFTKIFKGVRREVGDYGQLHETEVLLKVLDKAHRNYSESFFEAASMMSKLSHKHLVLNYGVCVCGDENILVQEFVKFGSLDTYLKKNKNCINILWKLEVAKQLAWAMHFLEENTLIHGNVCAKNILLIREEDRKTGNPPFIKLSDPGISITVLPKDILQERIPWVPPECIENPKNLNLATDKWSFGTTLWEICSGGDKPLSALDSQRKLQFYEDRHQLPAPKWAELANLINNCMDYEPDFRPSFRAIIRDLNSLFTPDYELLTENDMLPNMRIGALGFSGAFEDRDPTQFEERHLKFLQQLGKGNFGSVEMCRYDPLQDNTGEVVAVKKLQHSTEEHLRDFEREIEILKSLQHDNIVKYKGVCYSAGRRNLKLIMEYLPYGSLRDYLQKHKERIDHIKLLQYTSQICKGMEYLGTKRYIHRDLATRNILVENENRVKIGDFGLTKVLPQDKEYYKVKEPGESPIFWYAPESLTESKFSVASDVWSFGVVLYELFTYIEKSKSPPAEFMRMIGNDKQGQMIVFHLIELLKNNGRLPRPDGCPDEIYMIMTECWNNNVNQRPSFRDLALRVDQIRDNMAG
UniProt P42224: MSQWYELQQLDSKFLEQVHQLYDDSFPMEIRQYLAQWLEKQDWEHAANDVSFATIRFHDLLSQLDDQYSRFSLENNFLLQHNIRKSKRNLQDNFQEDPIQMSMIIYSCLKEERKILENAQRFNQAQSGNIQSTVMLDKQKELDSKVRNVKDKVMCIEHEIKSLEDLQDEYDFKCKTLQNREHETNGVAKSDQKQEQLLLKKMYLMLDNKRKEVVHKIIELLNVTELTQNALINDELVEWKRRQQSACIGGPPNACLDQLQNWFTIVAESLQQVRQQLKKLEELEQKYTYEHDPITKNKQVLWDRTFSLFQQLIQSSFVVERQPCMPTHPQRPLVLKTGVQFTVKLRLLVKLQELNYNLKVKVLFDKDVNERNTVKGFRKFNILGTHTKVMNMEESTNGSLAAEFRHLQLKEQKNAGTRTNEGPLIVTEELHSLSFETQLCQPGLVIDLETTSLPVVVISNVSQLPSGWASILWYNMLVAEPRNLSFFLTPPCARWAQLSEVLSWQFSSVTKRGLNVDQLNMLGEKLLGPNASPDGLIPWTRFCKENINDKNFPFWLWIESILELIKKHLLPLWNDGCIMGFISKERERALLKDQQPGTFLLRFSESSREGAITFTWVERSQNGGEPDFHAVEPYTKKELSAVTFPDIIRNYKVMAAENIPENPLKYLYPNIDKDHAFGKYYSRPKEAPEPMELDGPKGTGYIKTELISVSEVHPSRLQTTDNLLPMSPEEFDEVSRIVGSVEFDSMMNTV

Target: JAK2 of SET2 cells (JAK2 V617F mutated cell line) (human (endogenous in SET2)) (UniProt O60674)
Experiment: co-IP

- binding: binds
Substance: STAT1 (from UniProt P42224 1-750)
